# Measured values from the supplement of paper PMC11732987, “Enantioselective OTUD7B fragment discovery through chemoproteomics screening and high-throughput optimisation” (Communications Chemistry, 2025).
# Sequences of proteins named here, by UniProt entry; tags and fusion partners are left off. A change or cut given only in a name is not applied to a line headed by its entry. Residues count along the entry.
# UniProt Q9Y490, 1006-1025: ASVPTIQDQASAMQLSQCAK
# UniProt Q9Y490, 1375-1401: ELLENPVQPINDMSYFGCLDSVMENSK
# UniProt P48553: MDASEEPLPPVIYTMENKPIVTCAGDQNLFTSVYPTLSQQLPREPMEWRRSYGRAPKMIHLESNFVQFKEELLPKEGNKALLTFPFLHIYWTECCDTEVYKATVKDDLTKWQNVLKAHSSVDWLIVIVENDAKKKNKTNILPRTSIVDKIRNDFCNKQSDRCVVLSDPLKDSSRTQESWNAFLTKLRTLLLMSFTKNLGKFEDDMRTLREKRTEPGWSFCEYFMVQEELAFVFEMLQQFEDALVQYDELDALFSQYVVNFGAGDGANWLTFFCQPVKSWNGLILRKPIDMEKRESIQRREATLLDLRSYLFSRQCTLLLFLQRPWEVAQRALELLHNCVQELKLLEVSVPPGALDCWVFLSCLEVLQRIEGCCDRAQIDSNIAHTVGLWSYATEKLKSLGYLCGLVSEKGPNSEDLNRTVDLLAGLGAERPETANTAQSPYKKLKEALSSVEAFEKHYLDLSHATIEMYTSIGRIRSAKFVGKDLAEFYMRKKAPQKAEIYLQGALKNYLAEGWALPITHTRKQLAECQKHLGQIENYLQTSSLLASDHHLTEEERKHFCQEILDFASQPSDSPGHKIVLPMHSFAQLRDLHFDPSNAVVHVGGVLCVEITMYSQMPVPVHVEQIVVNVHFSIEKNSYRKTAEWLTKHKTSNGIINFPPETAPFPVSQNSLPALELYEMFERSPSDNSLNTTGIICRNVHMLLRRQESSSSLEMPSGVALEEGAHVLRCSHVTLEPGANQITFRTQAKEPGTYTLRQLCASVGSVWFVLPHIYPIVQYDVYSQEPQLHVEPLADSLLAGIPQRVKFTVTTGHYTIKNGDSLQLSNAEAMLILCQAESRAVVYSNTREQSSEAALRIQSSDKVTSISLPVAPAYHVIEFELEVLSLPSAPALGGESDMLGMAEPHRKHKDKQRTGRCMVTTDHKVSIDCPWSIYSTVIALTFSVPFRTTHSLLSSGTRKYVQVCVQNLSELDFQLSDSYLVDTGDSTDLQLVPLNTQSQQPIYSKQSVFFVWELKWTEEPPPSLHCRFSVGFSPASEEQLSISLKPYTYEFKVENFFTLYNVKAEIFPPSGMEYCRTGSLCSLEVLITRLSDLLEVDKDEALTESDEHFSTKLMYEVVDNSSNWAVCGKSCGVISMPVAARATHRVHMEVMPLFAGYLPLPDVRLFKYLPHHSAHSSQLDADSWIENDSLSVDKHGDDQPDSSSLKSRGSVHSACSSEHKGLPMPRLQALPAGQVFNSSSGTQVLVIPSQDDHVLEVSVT
# UniProt Q9UKI8, 67-86: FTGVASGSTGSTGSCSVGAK
# UniProt Q8NBN3: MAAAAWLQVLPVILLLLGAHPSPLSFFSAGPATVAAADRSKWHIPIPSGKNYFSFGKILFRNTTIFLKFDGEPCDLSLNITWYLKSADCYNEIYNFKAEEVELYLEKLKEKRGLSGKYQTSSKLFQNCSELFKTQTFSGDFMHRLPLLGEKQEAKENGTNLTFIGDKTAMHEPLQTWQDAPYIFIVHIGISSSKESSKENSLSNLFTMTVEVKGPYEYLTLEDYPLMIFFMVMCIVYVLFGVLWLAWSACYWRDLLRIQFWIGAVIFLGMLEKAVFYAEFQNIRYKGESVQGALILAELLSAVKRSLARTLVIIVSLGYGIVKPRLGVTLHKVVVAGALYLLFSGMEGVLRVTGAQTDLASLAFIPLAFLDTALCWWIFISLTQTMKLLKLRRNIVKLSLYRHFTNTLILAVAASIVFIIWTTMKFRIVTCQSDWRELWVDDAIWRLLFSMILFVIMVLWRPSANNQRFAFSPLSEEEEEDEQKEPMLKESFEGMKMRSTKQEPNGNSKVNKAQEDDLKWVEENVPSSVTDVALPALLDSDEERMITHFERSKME
# UniProt Q9ULW0, 84-111: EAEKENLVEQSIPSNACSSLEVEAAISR
# UniProt Q99805: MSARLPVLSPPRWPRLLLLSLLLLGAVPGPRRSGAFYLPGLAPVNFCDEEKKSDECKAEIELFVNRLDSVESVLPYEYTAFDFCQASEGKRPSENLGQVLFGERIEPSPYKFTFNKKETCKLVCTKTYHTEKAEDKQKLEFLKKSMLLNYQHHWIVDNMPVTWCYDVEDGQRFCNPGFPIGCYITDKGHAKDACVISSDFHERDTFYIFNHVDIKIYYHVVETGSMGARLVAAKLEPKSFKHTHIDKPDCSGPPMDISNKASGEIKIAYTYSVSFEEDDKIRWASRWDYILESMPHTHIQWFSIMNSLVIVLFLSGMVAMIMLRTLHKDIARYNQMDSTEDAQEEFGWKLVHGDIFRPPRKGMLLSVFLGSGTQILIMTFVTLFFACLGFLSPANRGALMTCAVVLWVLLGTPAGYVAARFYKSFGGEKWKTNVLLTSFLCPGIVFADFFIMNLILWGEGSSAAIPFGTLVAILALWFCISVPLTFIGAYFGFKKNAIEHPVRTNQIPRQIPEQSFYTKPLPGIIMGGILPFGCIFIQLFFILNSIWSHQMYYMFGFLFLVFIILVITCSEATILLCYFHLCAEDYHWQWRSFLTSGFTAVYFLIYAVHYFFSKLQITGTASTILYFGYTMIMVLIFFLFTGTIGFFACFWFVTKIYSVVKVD
# UniProt Q9H1E5, 310-338: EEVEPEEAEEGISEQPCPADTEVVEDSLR
# UniProt O94826, whole entry, looked up: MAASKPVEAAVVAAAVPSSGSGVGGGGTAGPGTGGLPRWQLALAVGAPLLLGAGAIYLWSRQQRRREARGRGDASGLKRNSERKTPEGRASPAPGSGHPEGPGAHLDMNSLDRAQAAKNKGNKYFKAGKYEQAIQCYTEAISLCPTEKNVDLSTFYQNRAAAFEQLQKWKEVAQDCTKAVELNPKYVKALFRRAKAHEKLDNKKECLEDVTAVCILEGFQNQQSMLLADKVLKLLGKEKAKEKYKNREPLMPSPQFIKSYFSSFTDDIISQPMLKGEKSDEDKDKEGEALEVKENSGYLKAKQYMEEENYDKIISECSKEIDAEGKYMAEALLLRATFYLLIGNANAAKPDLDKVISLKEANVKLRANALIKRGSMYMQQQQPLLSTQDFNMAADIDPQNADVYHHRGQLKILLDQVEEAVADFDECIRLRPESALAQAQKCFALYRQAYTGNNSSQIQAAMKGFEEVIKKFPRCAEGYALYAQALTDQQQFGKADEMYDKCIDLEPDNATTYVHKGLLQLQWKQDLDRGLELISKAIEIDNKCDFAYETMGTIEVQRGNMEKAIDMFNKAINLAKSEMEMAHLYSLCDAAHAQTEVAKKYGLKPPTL
# UniProt Q96SK2: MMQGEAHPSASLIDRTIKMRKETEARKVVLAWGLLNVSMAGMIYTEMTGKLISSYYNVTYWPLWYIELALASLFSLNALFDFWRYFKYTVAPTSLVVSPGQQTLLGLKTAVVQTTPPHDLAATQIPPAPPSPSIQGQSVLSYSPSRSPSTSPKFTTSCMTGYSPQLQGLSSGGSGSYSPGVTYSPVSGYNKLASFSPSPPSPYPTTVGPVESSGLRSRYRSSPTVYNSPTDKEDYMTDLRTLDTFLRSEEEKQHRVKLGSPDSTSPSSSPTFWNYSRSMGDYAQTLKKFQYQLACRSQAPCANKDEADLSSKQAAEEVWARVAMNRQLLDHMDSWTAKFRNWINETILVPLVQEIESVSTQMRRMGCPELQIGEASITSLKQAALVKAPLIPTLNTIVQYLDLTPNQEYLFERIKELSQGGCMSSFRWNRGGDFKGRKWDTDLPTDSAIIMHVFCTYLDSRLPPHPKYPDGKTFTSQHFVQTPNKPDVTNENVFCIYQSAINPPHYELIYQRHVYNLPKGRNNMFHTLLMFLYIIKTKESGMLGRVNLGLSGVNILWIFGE
# UniProt Q8NE00: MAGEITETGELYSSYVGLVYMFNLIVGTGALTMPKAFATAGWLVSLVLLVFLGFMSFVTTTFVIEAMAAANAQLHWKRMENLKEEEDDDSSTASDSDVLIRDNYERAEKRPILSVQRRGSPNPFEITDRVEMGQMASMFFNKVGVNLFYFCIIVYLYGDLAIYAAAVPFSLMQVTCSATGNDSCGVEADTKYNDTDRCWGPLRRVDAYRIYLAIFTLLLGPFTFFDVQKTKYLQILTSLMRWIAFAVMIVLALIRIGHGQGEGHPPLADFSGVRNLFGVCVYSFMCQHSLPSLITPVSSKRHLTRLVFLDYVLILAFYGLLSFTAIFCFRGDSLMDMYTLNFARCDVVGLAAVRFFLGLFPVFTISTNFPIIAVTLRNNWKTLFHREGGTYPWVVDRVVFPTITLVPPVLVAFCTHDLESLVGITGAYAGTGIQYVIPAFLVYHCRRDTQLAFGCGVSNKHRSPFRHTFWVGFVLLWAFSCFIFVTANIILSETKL
# UniProt O15164, 872-891: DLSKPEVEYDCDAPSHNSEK
# UniProt Q8NDV7: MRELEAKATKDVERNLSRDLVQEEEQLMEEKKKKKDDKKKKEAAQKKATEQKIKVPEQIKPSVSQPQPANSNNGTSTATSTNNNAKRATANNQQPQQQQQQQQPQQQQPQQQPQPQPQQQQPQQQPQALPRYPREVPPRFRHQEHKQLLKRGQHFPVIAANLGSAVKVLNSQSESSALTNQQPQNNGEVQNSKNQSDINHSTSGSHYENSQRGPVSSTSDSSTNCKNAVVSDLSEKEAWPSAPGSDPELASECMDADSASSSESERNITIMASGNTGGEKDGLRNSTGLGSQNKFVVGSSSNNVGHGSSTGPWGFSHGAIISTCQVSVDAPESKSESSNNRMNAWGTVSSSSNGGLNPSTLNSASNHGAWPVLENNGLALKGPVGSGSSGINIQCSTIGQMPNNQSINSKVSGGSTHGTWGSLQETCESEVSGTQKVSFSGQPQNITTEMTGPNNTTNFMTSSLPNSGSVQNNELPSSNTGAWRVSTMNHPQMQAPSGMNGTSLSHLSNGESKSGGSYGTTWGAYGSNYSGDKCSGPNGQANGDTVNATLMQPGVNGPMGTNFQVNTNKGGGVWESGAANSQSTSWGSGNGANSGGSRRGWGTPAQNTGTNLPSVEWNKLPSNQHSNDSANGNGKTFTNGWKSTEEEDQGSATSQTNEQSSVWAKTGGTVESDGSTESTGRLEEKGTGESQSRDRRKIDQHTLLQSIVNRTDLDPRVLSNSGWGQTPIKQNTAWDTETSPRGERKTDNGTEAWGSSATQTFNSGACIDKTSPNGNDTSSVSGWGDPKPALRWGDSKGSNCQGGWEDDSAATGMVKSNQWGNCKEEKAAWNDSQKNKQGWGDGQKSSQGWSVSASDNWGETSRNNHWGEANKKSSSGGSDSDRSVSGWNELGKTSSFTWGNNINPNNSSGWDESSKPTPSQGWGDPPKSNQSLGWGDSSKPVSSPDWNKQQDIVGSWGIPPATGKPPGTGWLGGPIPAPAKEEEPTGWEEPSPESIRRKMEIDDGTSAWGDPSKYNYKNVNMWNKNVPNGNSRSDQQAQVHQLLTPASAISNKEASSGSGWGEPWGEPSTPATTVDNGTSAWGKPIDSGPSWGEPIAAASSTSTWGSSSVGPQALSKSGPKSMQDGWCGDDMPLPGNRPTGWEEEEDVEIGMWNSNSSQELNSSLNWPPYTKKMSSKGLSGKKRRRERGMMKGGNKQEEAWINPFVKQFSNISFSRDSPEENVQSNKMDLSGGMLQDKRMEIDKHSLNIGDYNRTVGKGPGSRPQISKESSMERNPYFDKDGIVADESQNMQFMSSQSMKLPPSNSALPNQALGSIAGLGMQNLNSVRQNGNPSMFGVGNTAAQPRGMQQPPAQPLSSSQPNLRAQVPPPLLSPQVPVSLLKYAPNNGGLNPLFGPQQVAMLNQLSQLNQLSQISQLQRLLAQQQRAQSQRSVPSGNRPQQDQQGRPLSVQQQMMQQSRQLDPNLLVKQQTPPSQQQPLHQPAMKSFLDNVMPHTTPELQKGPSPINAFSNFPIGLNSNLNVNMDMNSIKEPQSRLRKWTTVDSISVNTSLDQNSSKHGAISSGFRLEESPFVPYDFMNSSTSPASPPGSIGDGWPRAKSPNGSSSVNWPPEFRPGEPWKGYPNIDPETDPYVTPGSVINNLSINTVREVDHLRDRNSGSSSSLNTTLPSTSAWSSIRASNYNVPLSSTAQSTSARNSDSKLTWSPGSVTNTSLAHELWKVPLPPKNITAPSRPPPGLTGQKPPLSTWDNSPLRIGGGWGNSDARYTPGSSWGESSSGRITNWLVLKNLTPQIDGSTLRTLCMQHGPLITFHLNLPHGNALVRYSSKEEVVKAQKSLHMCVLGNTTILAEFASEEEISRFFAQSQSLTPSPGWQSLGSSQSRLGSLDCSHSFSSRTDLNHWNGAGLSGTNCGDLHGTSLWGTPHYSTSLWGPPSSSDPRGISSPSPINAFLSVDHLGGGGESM
# UniProt Q8IY95: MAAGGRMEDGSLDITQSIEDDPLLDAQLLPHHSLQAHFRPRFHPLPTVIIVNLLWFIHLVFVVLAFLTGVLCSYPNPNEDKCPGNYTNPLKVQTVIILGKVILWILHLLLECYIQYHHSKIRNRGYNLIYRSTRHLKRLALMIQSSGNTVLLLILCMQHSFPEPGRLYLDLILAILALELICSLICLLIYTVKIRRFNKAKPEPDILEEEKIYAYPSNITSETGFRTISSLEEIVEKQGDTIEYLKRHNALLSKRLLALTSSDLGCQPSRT
# The list shows a part of the results. The data scatter; read single values as rough.
# Compound: ClCC(=O)N[C@@H]1CCCc2ccccc12
# Test: log2 mean competition ratio of IA-DTB cysteine labelling (DMSO/compound) (log2 ratio); higher = stronger cysteine engagement by compound
# Conditions: 50 µM; treatment time: 4 h; cell line lysate: HEK293T
# Experimental: (§1)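 IA-DTB competitive cysteine chemoproteomics in HEK293T RIPA lysate. Lysates were treated with compound 29 or 30 at 50 or 200 µM for 4 h, then IA-DTB (500 µM, 1 h), trypsin-digested, NeutrAvidin-enriched and analysed by diaPASEF. Competition ratio = intensity DMSO / intensity compound (n=4 treated, n=64 DMSO); binding: mean log2 CR ≥ 1 and p ≤ 0.05 plus QC filters. Target is the cysteine site.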
row,Target,log2 mean competition ratio
1,TMCC3 C180 (UniProt Q9ULS5),0.145
2,TMEM214 C655 (UniProt Q6NUQ4),0.0233
3,TRIR C165 (UniProt Q9BQ61),-0.0172
4,TLN1 C1023 (UniProt Q9Y490),-0.0795
5,TLN2 C2153 (UniProt Q9Y4G6),-0.0737
6,TRIM33 C276,-0.119
7,TRAPPC10 C696 (UniProt P48553),0.00113
8,TP53BP1 C489 (UniProt Q12888),-0.0196
9,TMEM131L C950,0.166

# Same assay, conditions: 200 µM; treatment time: 4 h; cell line lysate: HEK293T
row,Target,log2 mean competition ratio
1,TLCD3A C62 (UniProt Q8TBR7),0.534
2,TLK1 C81 (UniProt Q9UKI8),-0.129
3,TNKS C190 (UniProt O95271),-0.446
4,TMEM87A C89 (UniProt Q8NBN3),-0.276
5,TIPRL C87 (UniProt O75663),-0.329
6,TP53BP1 C319 (UniProt Q12888),-0.0117
7,TPX2 C100 (UniProt Q9ULW0),-0.23
8,TRIM41 C551 (UniProt Q8WV44),0.322
9,TRIO C2136 (UniProt O75962),0.101
10,TM9SF2 C250 (UniProt Q99805),0.0393
11,TLN2 C1954 (UniProt Q9Y4G6),-0.447
12,TMX4 C326 (UniProt Q9H1E5),-0.141
13,TOMM70 C176 (UniProt O94826),0.16
14,TMEM209 C422 (UniProt Q96SK2),0.00633
15,TP53 C124,-0.15
16,TPR C1127 (UniProt P12270),-0.325
17,TOP1MT C222,-0.096
18,TMEM104 C455 (UniProt Q8NE00),-0.211
19,TIMELESS C700 (UniProt Q9UNS1),-0.00945

row,Target,log2 mean competition ratio
1,TONSL C124 (UniProt Q96HA7),0.231
2,TRIM24 C882 (UniProt O15164),-0.068
3,TRIM32 C618 (UniProt Q13049),-0.138
4,TNRC6A C225 (UniProt Q8NDV7),-0.138
5,TLN1 C1392 (UniProt Q9Y490),-0.433
6,TK1 C79,-0.197
7,TMA16 C75 (UniProt Q96EY4),-0.0294
8,TMCO4 C537 (UniProt Q5TGY1),0.179
9,TMEM192 C266 (UniProt Q8IY95),0.25
10,TMCC3 C180 (UniProt Q9ULS5),0.514
11,TMEM214 C655 (UniProt Q6NUQ4),-0.139
12,TRIR C165 (UniProt Q9BQ61),-0.0557
13,TLN1 C1023 (UniProt Q9Y490),-0.136
14,TLN2 C2153 (UniProt Q9Y4G6),-0.215
15,TRIM33 C276,-0.374
16,TRAPPC10 C696 (UniProt P48553),0.314
17,TP53BP1 C489 (UniProt Q12888),-0.0881
18,TMEM131L C950,-0.188

# Compound: ClCC(=O)N[C@H]1CCCc2ccccc12
# Test: as above
# Conditions: 50 µM; treatment time: 4 h; cell line lysate: HEK293T
# Experimental: as §1
row,Target,log2 mean competition ratio
1,TLCD3A C62 (UniProt Q8TBR7),-0.337
2,TLK1 C81 (UniProt Q9UKI8),0.215
3,TNKS C190 (UniProt O95271),0.565
4,TMEM87A C89 (UniProt Q8NBN3),-0.256
5,TIPRL C87 (UniProt O75663),0.0862
6,TP53BP1 C319 (UniProt Q12888),0.192
7,TPX2 C100 (UniProt Q9ULW0),0.0493
8,TRIM41 C551 (UniProt Q8WV44),-0.213
9,TRIO C2136 (UniProt O75962),-0.1
10,TM9SF2 C250 (UniProt Q99805),-0.0754
11,TLN2 C1954 (UniProt Q9Y4G6),0.561
12,TMX4 C326 (UniProt Q9H1E5),-0.194
13,TOMM70 C176 (UniProt O94826),0.0148
14,TMEM209 C422 (UniProt Q96SK2),0.203
15,TP53 C124,-0.146
16,TPR C1127 (UniProt P12270),0.235
17,TOP1MT C222,-0.327
18,TMEM104 C455 (UniProt Q8NE00),-0.149
19,TIMELESS C700 (UniProt Q9UNS1),0.247

row,Target,log2 mean competition ratio
1,TONSL C124 (UniProt Q96HA7),-0.313
2,TRIM24 C882 (UniProt O15164),-0.048
3,TRIM32 C618 (UniProt Q13049),-0.61
4,TNRC6A C225 (UniProt Q8NDV7),0.244
5,TLN1 C1392 (UniProt Q9Y490),0.211
6,TK1 C79,-0.0903
7,TMA16 C75 (UniProt Q96EY4),0.0115
8,TMCO4 C537 (UniProt Q5TGY1),0.00392
9,TMEM192 C266 (UniProt Q8IY95),0.611
10,TMCC3 C180 (UniProt Q9ULS5),0.198
11,TMEM214 C655 (UniProt Q6NUQ4),0.107
12,TRIR C165 (UniProt Q9BQ61),0.277
13,TLN1 C1023 (UniProt Q9Y490),-0.0613
14,TLN2 C2153 (UniProt Q9Y4G6),0.0912
15,TRIM33 C276,0.313
16,TRAPPC10 C696 (UniProt P48553),-0.373
17,TP53BP1 C489 (UniProt Q12888),0.138
18,TMEM131L C950,0.226

# Same assay, conditions: 200 µM; treatment time: 4 h; cell line lysate: HEK293T
row,Target,log2 mean competition ratio
1,TLCD3A C62 (UniProt Q8TBR7),0.233
2,TLK1 C81 (UniProt Q9UKI8),-0.213
3,TNKS C190 (UniProt O95271),-0.288
4,TMEM87A C89 (UniProt Q8NBN3),-0.25
5,TIPRL C87 (UniProt O75663),-0.215
6,TP53BP1 C319 (UniProt Q12888),0.228
7,TPX2 C100 (UniProt Q9ULW0),-0.28
8,TRIM41 C551 (UniProt Q8WV44),-0.0283
9,TRIO C2136 (UniProt O75962),0.00906
10,TM9SF2 C250 (UniProt Q99805),-0.0731
11,TLN2 C1954 (UniProt Q9Y4G6),-0.289
12,TMX4 C326 (UniProt Q9H1E5),-0.189
13,TOMM70 C176 (UniProt O94826),0.0329
14,TMEM209 C422 (UniProt Q96SK2),0.0127
15,TP53 C124,-0.113
16,TPR C1127 (UniProt P12270),-0.0938
17,TOP1MT C222,-0.11
18,TMEM104 C455 (UniProt Q8NE00),-0.0207
19,TIMELESS C700 (UniProt Q9UNS1),-0.39

row,Target,log2 mean competition ratio
1,TONSL C124 (UniProt Q96HA7),0.00626
2,TRIM24 C882 (UniProt O15164),-0.276
3,TRIM32 C618 (UniProt Q13049),-0.194
4,TNRC6A C225 (UniProt Q8NDV7),-0.0335
5,TLN1 C1392 (UniProt Q9Y490),-0.404
6,TK1 C79,0.117
7,TMA16 C75 (UniProt Q96EY4),0.109
8,TMCO4 C537 (UniProt Q5TGY1),0.223
9,TMEM192 C266 (UniProt Q8IY95),0.23
10,TMCC3 C180 (UniProt Q9ULS5),-0.143
11,TMEM214 C655 (UniProt Q6NUQ4),0.0303
12,TRIR C165 (UniProt Q9BQ61),-0.0508
13,TLN1 C1023 (UniProt Q9Y490),0.0363
14,TLN2 C2153 (UniProt Q9Y4G6),-0.155
15,TRIM33 C276,-0.967
16,TRAPPC10 C696 (UniProt P48553),0.261
17,TP53BP1 C489 (UniProt Q12888),0.0144
18,TMEM131L C950,-0.0751
